# Measured values: the supplement of paper PMC4604168 (melanoma cell lines)
# This is one part of the list. Many values rest on one well or one pass, so single values are uncertain.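 Cells were imaged in 1,536-well plates, and nuclei stained with an antibody against cleaved PARP were counted against all DNA-stained nuclei to give the apoptosis fraction. Screening doses were chosen to leave most cells alive, and resting and induced cleaved-PARP levels differ strongly between cell lines.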
# Test system: COLO792
# Assay: cleaved PARP positive nuclei fraction relative to DMSO control; melanoma cells; higher = more apoptosis
# Details: library dose: low library concentration; 72 h
row,SMILES,cleaved PARP positive nuclei fraction
1,"CC(C)(C)c1cnc(CSc2cnc(NC(=O)C3CCNCC3)s2)o1 + Cc1cc(SCc2sc(-c3ccc(C(F)(F)F)c(F)c3)nc2C)ccc1OCC(=O)O [GW0742] (first compound 0.01 µM, partner dose 2 µM)",158%
2,"NCC(=O)Nc1ccc(-n2nc(C(F)(F)F)cc2-c2ccc3c(ccc4ccccc43)c2)cc1 + O=C(Oc1ccc([N+](=O)[O-])cc1)N1CCC(C(O)(c2ccc3c(c2)OCO3)c2ccc3c(c2)OCO3)CC1 [JZL184] (first compound 1 µM, partner dose 1 µM)",121%
3,"NCC(=O)Nc1ccc(-n2nc(C(F)(F)F)cc2-c2ccc3c(ccc4ccccc43)c2)cc1 + C/C(O)=C(\C#N)C(=O)Nc1cc(Br)ccc1Br [LFM-A13] (first compound 1 µM, partner dose 2 µM)",137%
4,"COc1cc(Nc2ncc(F)c(Nc3ccc4c(n3)NC(=O)C(C)(C)O4)n2)cc(OC)c1OC [Tamatinib] + O=C(Oc1ccc([N+](=O)[O-])cc1)N1CCC(C(O)(c2ccc3c(c2)OCO3)c2ccc3c(c2)OCO3)CC1 [JZL184] (first compound 0.4 µM, partner dose 1 µM)",166%
5,"O=C(O)C(=O)Nc1sc2c(c1C(=O)O)CCNC2 + O=C(Oc1ccc([N+](=O)[O-])cc1)N1CCC(C(O)(c2ccc3c(c2)OCO3)c2ccc3c(c2)OCO3)CC1 [JZL184] (first compound 1.66667 µM, partner dose 1 µM)",119%
6,"Cc1cc(SCc2sc(-c3ccc(C(F)(F)F)c(F)c3)nc2C)ccc1OCC(=O)O + O=C(Oc1ccc([N+](=O)[O-])cc1)N1CCC(C(O)(c2ccc3c(c2)OCO3)c2ccc3c(c2)OCO3)CC1 [JZL184] (first compound 2 µM, partner dose 1 µM)",189%
